No constants are given. Whether binding was seen depends on the method and setting. Binding seen in cells or lysates may run through a third protein. Some entries that bind do so weakly or less than the wild type. For some assays here: Sequences can lack the tags named with a protein.

Amino acid sequences for entries named in this document (tags omitted).
UniProt P63092: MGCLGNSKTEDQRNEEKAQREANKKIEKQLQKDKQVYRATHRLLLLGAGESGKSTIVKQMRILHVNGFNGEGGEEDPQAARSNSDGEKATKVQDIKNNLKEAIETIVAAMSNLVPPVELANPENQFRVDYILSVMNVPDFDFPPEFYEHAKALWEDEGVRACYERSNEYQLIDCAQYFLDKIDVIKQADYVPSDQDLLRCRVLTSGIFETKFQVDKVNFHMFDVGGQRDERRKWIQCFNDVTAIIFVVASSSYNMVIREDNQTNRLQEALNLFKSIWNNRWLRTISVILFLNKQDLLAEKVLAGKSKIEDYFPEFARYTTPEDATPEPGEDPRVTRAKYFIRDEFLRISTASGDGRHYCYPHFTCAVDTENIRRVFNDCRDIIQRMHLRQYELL
UniProt Q61056: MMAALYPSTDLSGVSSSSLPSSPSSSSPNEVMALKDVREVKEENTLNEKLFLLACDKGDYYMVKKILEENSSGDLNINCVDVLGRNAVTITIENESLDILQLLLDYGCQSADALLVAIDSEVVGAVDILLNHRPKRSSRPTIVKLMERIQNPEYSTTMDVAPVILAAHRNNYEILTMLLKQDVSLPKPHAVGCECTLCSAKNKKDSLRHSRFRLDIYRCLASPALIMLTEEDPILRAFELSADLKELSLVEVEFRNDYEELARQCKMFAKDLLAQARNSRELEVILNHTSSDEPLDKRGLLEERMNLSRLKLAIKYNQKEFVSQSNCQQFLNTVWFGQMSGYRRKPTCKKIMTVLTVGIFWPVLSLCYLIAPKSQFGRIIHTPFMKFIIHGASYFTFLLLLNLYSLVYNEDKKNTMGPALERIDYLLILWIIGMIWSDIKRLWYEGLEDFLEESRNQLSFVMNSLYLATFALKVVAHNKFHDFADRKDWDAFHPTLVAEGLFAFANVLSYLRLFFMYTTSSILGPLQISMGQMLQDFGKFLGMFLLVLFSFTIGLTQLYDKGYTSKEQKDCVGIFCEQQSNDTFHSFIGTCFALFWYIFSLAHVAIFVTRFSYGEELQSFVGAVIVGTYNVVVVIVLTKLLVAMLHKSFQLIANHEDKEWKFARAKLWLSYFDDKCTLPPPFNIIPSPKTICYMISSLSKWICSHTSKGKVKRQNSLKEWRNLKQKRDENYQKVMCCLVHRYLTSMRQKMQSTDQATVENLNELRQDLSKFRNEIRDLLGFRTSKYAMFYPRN

Consider one substance from article PMC7205425.

For test [1], the target named is T1, G protein subunit α 11 (Gα11), myc-tagged (mouse) (UniProt P21278).
T1 sequence: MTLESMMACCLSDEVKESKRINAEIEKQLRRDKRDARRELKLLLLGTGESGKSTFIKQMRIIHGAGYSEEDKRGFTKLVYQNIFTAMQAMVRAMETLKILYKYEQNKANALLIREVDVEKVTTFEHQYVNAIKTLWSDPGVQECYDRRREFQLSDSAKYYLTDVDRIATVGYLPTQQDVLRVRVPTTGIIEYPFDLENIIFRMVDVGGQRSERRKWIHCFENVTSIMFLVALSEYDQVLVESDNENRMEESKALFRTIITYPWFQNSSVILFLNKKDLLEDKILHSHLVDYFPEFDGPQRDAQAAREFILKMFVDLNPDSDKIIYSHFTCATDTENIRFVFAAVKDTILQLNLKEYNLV
Kind of test: co-IP; HEK293T cells transiently cotransfected; native lysis solution (1% Triton X-100, 150 mM NaCl, 10 mM Tris-HCl pH 7.5, 1 mM EDTA, 1 mM EGTA, 0.5% Igepal, 10% sucrose), 4°C; Gα11 immunoprecipitated with anti-myc, GαS with anti-GαS; TRPC1 detected in the complexes with 1F1.

The target of a further test is GαS (UniProt P63092). The test is described as above.

As to “short form of TRPC1α (from UniProt Q61056 1-793)”, the values for the binding result (in test [1]; with GαS) were “binds” and “no binding”, respectively.
